Laboratory results taken from patent publication US12161630B2, “Methods to control infection using new generation small molecule growth inhibitors” (priority 2017, dated 2024).

Test system: chicken cecal microbiota
Assay: Cecal microbiota 16S rRNA sequencing of SM-treated infected chickens
Assay type: in vivo, broiler chickens
Settings: for impact on the cecal microbiota: infected broilers, compared to DMSO group
Method: DNA extraction and sequencing: Microbiota diversity and abundance were investigated using the second cecum directly stored in −80° C. Genomic DNA was extracted using the PureLink Microbiome DNA Purification Kit (Life Technologies, Invitrogen Corp.), combined with RNAse treatment (10 units/hour). About 0.15 g to 0.20 g of cecum content was processed according to manufacturer's instructions. After quality control with electrophoresis and nanodrop, extracted DNA samples were subjected for 16S rRNA V4-V5 variable region sequencing. As a first step of targeted sequencing, amplicon libraries were prepared by using Phusion® High-Fidelity PCR Kit (New England Biolabs Inc, Ipswich, MA) in a 96-well plate. 25 μL of PCR reactions were prepared using 5 μl (5×) of PCR buffer, 4 μl (5 ng/μl) of DNA sample, and 2.5 μl (2 μM) primer, 0.5 μl (10 mM) dNTPs, 0.2 μl of enzyme, and nuclease free water to final volume. The barcoded primers targeted the V4-V5 variable region. The following PCR conditions were used for amplifications: initial denaturation was at 96° C. for 2 min, and 25 cycles of 96° C. for 30 sec, 55° C. for 30 sec, 72° C. for 30 sec, with final extension of 72° C. for 5 min. Following PCR amplification, PCR products were cleaned using AMPure XP PCR (Beckman Coulter Inc, Beverly MA). Sample concentrations were measured, and equal concentration of all samples were pooled into one flow cell and sequenced using Illumina MiSeq 300-base, paired-end kit at the Molecular and Cellular Imaging Center (Ohio Agricultural Research & Development Center, Wooster, OH).
Bioinformatics analyses: After sequencing, a quality control of the raw reads was performed using FastQC (Babraham Bioinformatics, Cambridge, USA). Only nucleotides with a base sequence quality having a median quality score above 25 and lower quartile median quality score above 10 were used for further analysis. Trimmomatic was used for trimming and removal of NexteraPE-PE adapter sequences (15). Details concerning the parameters used are described in mcbl.readthedocs.io/en/latest/mcbl-tutorials-AD-clean.html. The resulting forward and reverse sequences were merged using Pandaseq (github.com/neufeld/pandaseq). During this step, any sequences with less than 0.7 threshold overlap was removed and primers used for amplification were trimmed. Controls containing only water and the extractions buffers used for the DNA extraction steps were analysis to confirm lack of contaminants. Then samples were processed using Quantitative Insights Into Microbial Ecology (QIIME) software version 1.9 (16). Operational Taxonomy Units (OTUs) were determined by clustering reads against Greengenes 16S reference dataset (2013-08 release) at a 97% identity using open picking reference OTU (pick_open_reference_otus.py) method using default parameters, except setting minimum OTU size to 10. Microbial diversity was studied after rarefication of the sequences based on the lowest number of sequences among the samples tested. Alpha and beta diversities were analyzed using the core analysis package (core_diveristy_analyses.py), which included the comparison of the phylogenetic diversity and richness, principal coordinate analysis, and relative abundance studies (summarize_taxa_through_plots.py). Identification of microbial difference between different diets was performed using linear discriminant analysis (LDA) in the Galaxy/Hutlab website (huttenhower.sph.harvard.edu/galaxy/).

[1] = compared to DMSO control (P<0.01)

## CC1CCC(C(C)C)C(OC(=O)Cn2c[n+](CC(=O)OC3CC(C)CCC3C(C)C)c3ccccc32)C1.[Cl-] (stereo not shown) [SM1, 1,3-bis{2-[(2-isopropyl-5-methylcyclohexyl)oxy]-2-oxoethyl}-1H-3,1-benzimidazol-3-ium chloride]
  impact on the cecal microbiota: more important alteration

## CCCCCCCCCCCCCCCC[n+]1ccn(CC#N)c1.[Cl-] [SM3, 1-(cyanomethyl)-3-hexadecyl-1H-imidazol-3-ium chloride]
[1]
  higher level of Enterobacteriaceae in ceca: 2.5 fold
  increase in Clostridium in ceca: 15 fold
  increase in Leuconostocaceae OTUs in ceca: 10 fold

## CCCCCCCCCCCCCCCCn1c[n+](C)c2ccccc21.[Br-] [SM4, 1-hexadecyl-3-methyl-1H-3,1-benzimidazol-3-ium bromide]
  impact on the cecal microbiota: minimal impact; also recorded: more important alteration

## CCOc1cc(/C=N/N=C(N)N)ccc1OCc1ccc(Cl)cc1 [SM5, N″-{4-[(4-chlorobenzyl)oxy]-3-ethoxybenzylidene}carbonohydrazonic diamide]
[1]
  increase in Leuconostocaceae OTUs in ceca: increase
  impact on the cecal microbiota: minimal impact

“Also recorded” adds a separate entry of the source.
